The target in the series is GST-Msx2 (UniProt Q03358). Briefly: EMSA. As to conditions: 1X phosphate buffer, 10% glycerol, 0.3 mg/ul BSA, 0.1 ug/ul DNaseI-digested poly[dG-dC], 20 ul, on ice 10 min + 20 min with probe; 6% native PAGE, 1x TBE, 4 C; recombinant protein; residues 1-267; protein details: N-terminal GST (pGEX3X); label: 32P 5' end (PNK) when probe. A general note: A gel shift assay detects complexes by their altered migration in electrophoresis.

The chains behind the UniProt entries cited, without tags or fusion partners. Where a name states a change or a piece, a line headed by the entry shows the natural chain unless it says otherwise.
UniProt Q03358: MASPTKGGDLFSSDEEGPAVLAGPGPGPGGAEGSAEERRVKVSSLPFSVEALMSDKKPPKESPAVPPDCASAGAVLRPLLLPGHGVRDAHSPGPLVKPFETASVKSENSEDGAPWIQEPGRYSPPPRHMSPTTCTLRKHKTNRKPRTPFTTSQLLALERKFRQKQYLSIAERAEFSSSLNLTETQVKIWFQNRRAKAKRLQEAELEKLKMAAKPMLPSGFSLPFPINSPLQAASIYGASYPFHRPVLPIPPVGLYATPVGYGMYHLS

Results on one sequence are retold here after paper PMC3373496.

The exact form of at least one protein or probe is not confirmed.

For the sequence GATCCACTAATTGGAGG (double strand) [MBS], the binding result is given as “binds”.
